Peptide text beside a SMILES is read from it.
Tested on: Jurkat T cells
Assay: Untargeted metabolomics of supernatants and cell pellets of apoptotic (UV) versus live Jurkat T cells
Assay type: cell-based, human
Details: for Fold Change (FAp/FL)-Cell / Fold Change (FAp/FL)-Supe: Jurkat T cells, UV, apoptotic versus live; for Fold Change (FAp/FL)-Cell: cell pellet decrease; for Fold Change (FAp/FL)-Supe: supernatant enrichment; for Fold Change (FAp/FL): Jurkat UV metabolite release, apoptotic versus live supernatant, 4 hours after apoptosis induction

Row | Molecule | Fold Change (FAp/FL)-Cell | Fold Change (FAp/FL)-Supe | Fold Change (FAp/FL) | Release of metabolite into apoptotic cell supernatants (in words) (Jurkat T cell supernatants, live and apoptotic conditions)
1 | O=c1[nH]cnc2nc[nH]c12 [hypoxanthine] | 0.47 | 3.60 | 3.60 | 
2 | OC[C@H]1O[C@@H](n2cnc3c(O)ncnc32)[C@H](O)[C@@H]1O [inosine] | 0.11 | 5.14 | 5.14 | 
3 | CC[C@H](C)[C@H](N)C(=O)O [isoleucine] | 0.71 | 1.12 | 1.12 | 
4 | CC(C)C[C@H](N)C(=O)O [leucine] | 0.70 | 1.24 | 1.24 | 
5 | CCCCC/C=C\C/C=C\CCCCCCCC(=O)O [linoleate (18:2n6)] |  |  | 1.64 | 
6 | NCCCC[C@H](N)C(=O)O [lysine] |  |  | 1.22 | 
7 | O=C(O)CC(O)C(=O)O (stereo not shown) [malate] | 0.58 | 8.33 | 8.33 | 
8 | C[S+]([O-])CC[C@H](N)C(=O)O (stereo partly shown) [methionine sulfoxide] | 0.83 | 1.16 | 1.16 | 
9 | CSCC[C@H](N)C(=O)O [methionine] | 0.70 | 1.20 | 1.20 | 
10 | CC(C(=O)O)C(=O)O [methylmalonate (MMA), methylmalonate] | 0.15 | 1.68 | 1.68 | 
11 | NC(=O)c1ccc[n+]([C@@H]2O[C@H](CO)[C@@H](O)[C@H]2O)c1 [nicotinamide riboside] | 0.14 | 2.66 | 2.66 | 
12 | NC(=O)c1cccnc1 [nicotinamide] | 0.17 | 1.25 | 1.25 | 
13 | CCCCCC/C=C\CCCCCCCC(=O)O [palmitoleate (16:1n7)] |  |  | 2.45 | 
14 | O=C(O)CNC(=O)Cc1ccccc1 [phenylacetylglycine] |  |  | 1.86 | 
15 | N[C@@H](Cc1ccccc1)C(=O)O [phenylalanine] | 0.71 | 1.14 | 1.14 | 
16 | O=C(O)C1CCCCN1 (stereo not shown) [pipecolate] | 0.08 | 1.28 | 1.28 | 
17 | O=C(O)[C@@H]1CCCN1 [proline] | 0.48 | 1.16 | 1.16 | 
18 | O=C(O)CNC(=O)[C@@H]1CCCN1 [prolylglycine] (H-Pro-Gly-OH) |  |  | 7.37 | 
19 | NCCCCN [putrescine] |  |  |  | not released
20 | O=C(O)[C@H](O)[C@H](O)[C@H](O)CO [ribonate] | 0.20 | 1.31 | 1.31 | 
21 | N[C@@H](CO)C(=O)O [serine] | 0.68 | 1.26 | 1.26 | 

Row | Molecule | Fold Change (FAp/FL)-Cell | Fold Change (FAp/FL)-Supe | Fold Change (FAp/FL) | Release of metabolite into apoptotic cell supernatants (in words) (Jurkat T cell supernatants, live and apoptotic conditions)
22 | NCCCCNCCCN [spermidine] | 0.26 | 8.91 | 8.91 | 
23 | O=C(O)CCC(=O)O [succinate] |  |  | 1.55 | 
24 | NCCS(=O)(=O)O [taurine] | 0.08 | 19.01 | 19.01 | 
25 | O=C(O)[C@@H]1CSCN1 [thioproline] |  |  | 1.40 | 
26 | C[C@@H](O)[C@H](N)C(=O)O [threonine] | 0.69 | 1.20 | 1.20 | 
27 | Cc1cn([C@H]2C[C@H](O)[C@@H](CO)O2)c(=O)[nH]c1=O [thymidine] |  |  | 24.22 | 
28 | NCCc1c[nH]c2ccccc12 [tryptamine] |  |  | 1.46 | 
29 | N[C@@H](Cc1c[nH]c2ccccc12)C(=O)O [tryptophan] | 0.63 | 1.26 | 1.26 | 
30 | N[C@@H](Cc1ccc(O)cc1)C(=O)O [tyrosine] | 0.76 | 1.14 | 1.14 | 
31 | O=c1ccn([C@@H]2O[C@H](COP(=O)(O)O)[C@@H](O)[C@H]2O)c(=O)[nH]1 [uridine 5′-monophosphate (UMP), uridine 5′-monophosphate] | 0.37 | 9.39 | 9.39 | 
32 | O=c1ccn([C@@H]2O[C@H](CO)[C@@H](O)[C@H]2O)c(=O)[nH]1 [uridine] | 0.66 | 25.03 | 25.03 | 
33 | CC(C)[C@H](N)C(=O)O [valine] | 0.76 | 1.26 | 1.26 | 
34 | N2-acetyllysine/N6-acetyllysine |  |  | 2.62 | 
35 | N-acetylglucosamine/N-acetylgalactosamine |  |  | 6.04 | 
36 | arabonate/xylonate |  |  | 1.48 | 
37 | choline phosphate | 0.27 | 12.15 | 12.15 | 
38 | dihydroxyacetone phosphate [dihydroxyacetone phosphate (DHAP)] | 0.59 | 9.87 | 9.87 | 
39 | dimethyl arginine (SDMA + ADMA) |  |  | 1.83 | 
40 | eicosenoate (20:1) |  |  | 2.49 | 
41 | linolenate [alpha or gamma; (18:3n3 or 6)] |  |  | 1.91 | 
42 | mannitol/sorbitol | 0.50 | 2.25 | 2.25 | 

From US20230172877A1, “METABOLITES RELEASED FROM APOPTOTIC CELLS ACT AS NOVEL TISSUE MESSENGERS” (University of Virginia Patent Foundation, priority 2020, published 2023)
